Literature values, collected in patent publication US7815803B2, “Preparation of samples for LC-MS/MS using magnetic particles” (Roche Diagnostics Operations, Inc., priority 2007, dated 2010).
For at least one compound, name, drawing or mass did not settle the structure.

Details: in vitro; cited from earlier work

## CO[C@H]1C[C@@H]2CC[C@@H](C)[C@@](O)(O2)C(=O)C(=O)N2CCCC[C@H]2C(=O)O[C@H]([C@H](C)C[C@@H]2CC[C@@H](O)[C@H](OC)C2)CC(=O)[C@H](C)/C=C(\C)[C@@H](O)[C@@H](OC)C(=O)[C@H](C)C[C@H](C)/C=C/C=C/C=C/1C [Sirolimus, sirolimus]
  potency relative to cyclosporin: up to 100 times
